According to publication doi:10.1101/2022.01.24.477493:
Results are given in words; binding and its absence hold for the method and conditions named. Binding seen in cells or lysates may run through a third protein. A yes stands for co-enrichment or nearness to the bait. Other partners may have been found. For some assays here: A no says only that the protein was not detected with the bait. One block for each molecule: values may come before it.

By UniProt entry, the sequences of proteins in these tests, tags left out.
UniProt O35350: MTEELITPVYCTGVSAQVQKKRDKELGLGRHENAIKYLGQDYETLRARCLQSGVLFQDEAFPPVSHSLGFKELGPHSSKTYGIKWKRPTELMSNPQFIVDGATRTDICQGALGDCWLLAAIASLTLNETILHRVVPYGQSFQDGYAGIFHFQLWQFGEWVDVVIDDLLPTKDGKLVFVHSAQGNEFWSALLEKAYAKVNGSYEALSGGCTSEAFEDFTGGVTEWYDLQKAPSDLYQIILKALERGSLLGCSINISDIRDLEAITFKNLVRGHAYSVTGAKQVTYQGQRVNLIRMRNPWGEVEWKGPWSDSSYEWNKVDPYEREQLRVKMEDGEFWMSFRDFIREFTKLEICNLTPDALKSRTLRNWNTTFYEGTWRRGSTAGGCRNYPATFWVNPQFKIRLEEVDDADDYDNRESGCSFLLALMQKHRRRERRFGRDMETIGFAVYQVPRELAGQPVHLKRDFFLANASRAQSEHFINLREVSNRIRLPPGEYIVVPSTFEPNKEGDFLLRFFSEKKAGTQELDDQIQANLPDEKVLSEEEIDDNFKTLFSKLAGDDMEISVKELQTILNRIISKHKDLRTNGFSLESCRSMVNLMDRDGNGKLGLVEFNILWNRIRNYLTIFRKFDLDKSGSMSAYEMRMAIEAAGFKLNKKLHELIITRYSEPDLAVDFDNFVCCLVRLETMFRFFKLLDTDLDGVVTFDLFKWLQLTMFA
UniProt Q9D5T0: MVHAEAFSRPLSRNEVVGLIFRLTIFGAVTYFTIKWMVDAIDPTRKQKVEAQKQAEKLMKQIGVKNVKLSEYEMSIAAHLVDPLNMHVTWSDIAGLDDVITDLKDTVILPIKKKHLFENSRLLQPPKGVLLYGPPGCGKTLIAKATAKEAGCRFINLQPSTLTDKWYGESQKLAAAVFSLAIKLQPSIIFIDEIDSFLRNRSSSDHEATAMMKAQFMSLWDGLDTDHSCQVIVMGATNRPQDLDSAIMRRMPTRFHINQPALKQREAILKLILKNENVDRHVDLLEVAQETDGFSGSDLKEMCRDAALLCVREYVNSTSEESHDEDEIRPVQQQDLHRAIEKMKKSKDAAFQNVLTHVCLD
UniProt O88685: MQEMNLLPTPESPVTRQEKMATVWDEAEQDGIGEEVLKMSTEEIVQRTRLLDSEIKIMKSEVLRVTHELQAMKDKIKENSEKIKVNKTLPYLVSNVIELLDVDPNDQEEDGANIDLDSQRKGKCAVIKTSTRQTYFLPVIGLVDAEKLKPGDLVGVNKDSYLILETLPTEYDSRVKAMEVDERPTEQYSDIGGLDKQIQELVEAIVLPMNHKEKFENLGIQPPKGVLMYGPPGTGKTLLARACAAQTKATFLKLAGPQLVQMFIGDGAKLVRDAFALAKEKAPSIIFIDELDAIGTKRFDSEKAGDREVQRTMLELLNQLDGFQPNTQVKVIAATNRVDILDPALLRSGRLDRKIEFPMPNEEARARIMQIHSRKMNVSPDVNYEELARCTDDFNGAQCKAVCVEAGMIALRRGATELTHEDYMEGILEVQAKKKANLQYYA

Tests used:
[1] = target: calpain-1 (mouse (endogenous in mouse muscle)) (UniProt O35350); assay: affinity purification with mass spectrometry
[2] = target: ATAD1 (mouse (endogenous in mouse muscle)) (UniProt Q9D5T0); assay: SEC + affinity purification with mass spectrometry
[3] = target: ATAD1 (mouse (endogenous in mouse muscle)) (UniProt Q9D5T0); assay: affinity purification with mass spectrometry

binding [1]: binds
Molecule: ATAD1 (from UniProt Q9D5T0 1-361) (enzyme)

binding [2]: binds
Molecule: PSMC3 (Rpt5) (from UniProt O88685 1-442)

binding [2]: no binding
Molecule: p97/VCP (from UniProt Q01853 1-806) (enzyme)

binding [2]: binds
B1: UBXN4 (protein, UniProt Q8VCH8 1-506)
chain: MLWFQGAIPAAIASAKRSGAVFVVFVAGDDEQSIQMAASWEDEKVTQASSNNFVAIKIDTKSEACLQFSQIYPVVCVPSSFFIGDSGIPLEVIAGSVSADELVTRIHKVQQMHSSKGEASVTNDNQSESSVSTPSASFEPDVCENPESKNTELCETPATSDIKSDTATGGECTGHDSHSQEPHGCSNQRPAEDLTVRVERLTKKLEERREEKRKEEAQREIKKEIERRKTGKEMLDYKRKQEEELTKRMLEERSREKAEDRAARERIKQQIALDRAERAARFAKTKEAEAAKAAALLTKQAGTEVKRESTARDRSTIARIQFRLPDGSSFTNQFPSDAPLEEARQFAAQTVGNTYGNFSLATMFPRREFTREDYKRRLLDLELAPSASVVLLPAGRPATSIVHSSSGDIWTLLGTVLYPFLAIWRLISNFLFSNPPPAQTSARATSTEPSNSASSSKSEKREPVRKRMLEKRGEDFKKEGKIYRLRTQDDGEDENNTWNGNSTQQM

binding [3]: binds
B2: Phospholipase A-2-activating protein (PLAA) (protein, UniProt P27612 1-794)
chain: MASGASRYRLSCSLPGHELDVRGLVCCLYPPGAFVSVSRDRTTRLWAPDSPNRGFTEMHCMSGHSNFVSCVCIIPSSDIYPHGLIATGGNDHNICIFSLDSPMPLYILKGHKDTVCSLSSGKFGTLLSGSWDTTAKVWLNDKCMMTLQGHTAAVWAVKILPEQGLMLTGSADKTIKLWKAGRCERTFLGHEDCVRGLAILSETEFLSCANDASIRRWQITGECLEVYFGHTNYIYSISVFPNSKDFVTTAEDRSLRIWKHGECAQTIRLPAQSIWCCCVLENGDIVVGASDGIIRVFTESEERTASAEEIKAFERELSQATIDSKTGDLGDINAEQLPGREHLSEPGTREGQTRLIRDGERVEAYQWSVSDGRWIKIGDVVGSSGANQQTSGKVLYEGKEFDYVFSIDVNEGGPSYKLPYNVSDDPWLVAYNFLQKNDLNPMFLDQVAKFIIDNTKGQTLGLGNTSFSDPFTGGGRYVPGTSGPSNTVQTADPFTGAGRYMPGSAGMDTTMTGVDPFTGNSAYRSAASKTVNIYFPKKEALTFDQANPTQILGKLKELNGTAPEEKKLTEDDLVLLEKILSLICNNSSEKPTAQQLQILWKAINWPEDIVFPALDILRLSIKHPNVNENFCNEKGDQFSSHLINLLNPKGKPANQLLALRTFCNCFVSQAGQKLMMSQRESLMSHAIELKSGSNKNIHIALATLTLNYSVCFHKDHNIEGKAQCLSVISTILEVVQDLEATFRLLVALGTLISDDSNAIQLAKSLGVDSQIKKYVSVSEPAKVSECCRLVLHLL
